Laboratory results: US20090203877A1, “X-RAY-DENSE CONJUGATE” (Eberhard-Karls-Universitaet Tuebingen Universitaetsklinkum, priority 2006, published 2009)
Part of at least one peptide drawing is inferred or uncertain, most often the ends.

Assays:
[1] = tested on: human malignant LN18 glioma cells; assay: Uptake/staining of cells by FITC-labelled conjugates (CLSM, FACS, semi-thin sections); format: cell-based; settings: 2.6 mM compared with 260 μM
Protocol: (§1) The human malignant U373 and LN18 glioma cells were cultivated in 75 cm^2 culture flasks (Corning Costar) (70% confluency) under the conditions as described under 1.4, detached from the flask bottom with Accutase™ (PAA Laboratories) and in the following distributed on Eppendorf tubes (Eppendorf, Hamburg, Germany) (6×10^6 per tube). The cells in the first tube serve as a control (only PBS buffer only). The cells in the other ten tubes were each incubated with benzoic acid (BA), monoiodobenzoic acid (MIBA) or diiodobenzoic acid (DIBA) alone (260 μM), conjugate 3 alone (260 μM), conjugate 3 plus either BA, MIBA or DIBA (260 μM), respectively, and the conjugates 9, 10, and 11 alone. (260 μM).
After an incubation of 20 minutes at 37° C./5% CO2 the cells were washed three times with PBS buffer and centrifuged at 800 rpm (rounds per minute) for 5 minutes. The fluorescence was measured in Becton Dickinson FACSCalibur as described under 1.4. The computer tomography was performed as described under 1.5.1. The examinations were repeated two times. […]
(§2) The FACS analysis was performed as described under 1.4. The assay was repeated two times.
(§3) For the CT and FACS examinations human LN18 and U373 glioma cells were cultivated in 75 cm^2 culture flasks (70% confluency) (conditions as described under section 1). Accutase™ (PAA Laboratories) was added to detach the cell from the culture bottom. The cells were collected and then distributed on Eppendorf-tubes (6×10^6 cells per tube). […] The next three tubes were used for the coincubation of the cells either with trichlorobenzoic acid (TCBA), trifluorobenzoic acid (TFBA) or tribromophenyl Isocyanat (TBPI) and the NLS-FITC-conjugate 3 (260 μM). As control cells were used which were only either incubated with CIBA, FIBA, TBPI (in each case 260 μM in PBS) or with PBS-buffer (native control) alone. […] The computer tomography and FACS analysis of the cell centrifuges were performed as described in 1.5.1 or 1.4, respectively for three times.
All measurements were performed on living cells.
All measurements were performed on living cells in triplicates.
A part of the cells which were stained for the FACS analysis, was fixed by paraformaldehyl with 2% Agar, dehydrogenized in ethanol, embedded in Lowicryl K4M (Polysciences, Eppelheim, Germany) and according to the information of the manufacturer UV-polymerised at room temperature. Semi-thin sections (about 0.4 μm) were cut and evaluated by means of fluorescence microscopy.

[2] = tested on: human malignant U373 glioma cells; assay: Uptake/staining of cells by FITC-labelled conjugates (fluorescence microscopy, CLSM, FACS, semi-thin sections); format: cell-based
Protocol: Fluorescence was measured in a Becton Dickinson FACSCalibur. […] The investigations were performed in triplicate.
For CT and FACS human U373 glioma cells were grown under the same conditions in 75 cm^2 culture flasks (Corning Costar, Bodenheim, Germany) (70% confluency). Accutase™ (PAA laboratories, Pasching, Austria) was added to achieve detachment of the cells which were harvested and subsequently aliquoted into Eppendorf tubes (6×10^6 cells per tube). As in the investigations performed by fluorescence microscopy, the cells in the first tube served as a control (PBS only). The cells in the other tubes were incubated with 260 μM Ultravist, 260 μM TIBA in PBS and 26 μM, 260 μM and 2.6 mM conjugates 1-4 in PBS. After a 20 minute incubation period at 37° C. in an atmosphere of 5% CO2, the cells were washed three times in PBS and centrifuged at 800 rpm for 5 minutes.
The FACS analysis was performed as described under 1.4.
as §1
After an incubation of 20 minutes at 37° C./5% CO2 the cells were washed three times with PBS buffer and centrifuged at 800 rpm (rounds per minute) for 5 minutes. The fluorescence was measured in Becton Dickinson FACSCalibur as described under 1.4. The computer tomography was performed as described under 1.5.1. The examinations were repeated two times.
For the CT and FACS examinations human LN-18 and U373 glioma cells were cultivated in 75 cm^2 culture flasks (Corning Costar) (70% confluency) (conditions as described under 1.4). Accutase™ (PAA Laboratories) was added to detach the cells from the bottom of the culture flasks. The cells were collected and then distributed on Eppendorf tubes (6×10^6 cells per tube). The cells in the first two tubes serve as a control (in each case only PBS, LN18 and U373 glioma cells, native). The cells in the other tubes (in each case LN18 and U373 glioma cells) were incubated with a 260 μM or 2.6 mM solution of the conjugate 12 for 20 minutes at 37° C. and 5% CO2 and in the following washed for three times with PBS buffer and centrifuged for 5 minutes with 800 rpm (rounds per minute). For a small amount of the cells it was tested by the MMT test (see 1.4) how many of the cells were still viable. The computer tomography of the cell centrifuges was performed with the Somatom Sensation 16 (Siemens).
as §2
as §3, with “times. […]” for “times.”

`CC(C)[C@H](NC(=O)[C@H](CCCCN)NC(=O)[C@H](CCCNC(=N)N)NC(=O)[C@H](CCCCN)NC(=O)[C@H](CCCCN)NC(=O)[C@H](CCCCN)NC(=O)[C@@H]1CCCN1C(=O)c1cc(I)cc(I)c1I)C(=O)N[C@@H](CCCCNC(=S)Nc1ccc2c(c1)C(=O)OC21c2ccc(O)cc2Oc2cc(O)ccc21)C(=O)NCC(=O)NCC(=O)N[C@@H](CCCCN)C(N)=O` [conjugate 12, P(TIBA)KKKRKVK(FITC)GGK] was tested, and the “stained cells, FACS” value [1] was “clearly more cells are stained”, the “stained cells, FACS” value ([2]; 2.6 mM compared with 260 μM) was “clearly more cells are stained” and the “cells heavily stained in the nucleus” value ([2]; conjugate 12, CLSM FIG. 10, concentration not given) was “up to 70%”. The “nuclear staining (CLSM, FITC channel)” value ([2]; conjugate 12, FIG. 10, concentration not given) was “Many nuclearly stained nuclei” and the “staining of nucleoli in semi-thin sections (about 0.4 μm)” value ([2]; fluorescence microscopy after incubation) was “concentrated in the nucleoli”.
